# Laboratory results as given in PubChem BioAssay AID1508600 (Functional Genomics Laboratory (NCATS/FGL), 2020).
# The whole screen tested about 53,000 sequences, of which about 3,700 (7%) were called active.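 How the source made its calls: active means gene knockdowns whose robust z-score for IL-1 alpha signal is at least 2 or at most -2, so actives lie on both sides; inactive means the rest.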 This is one part of the list.
# Assay: Components of the Cytosolic LPS Sensing Pathway: Gene Identification via Genome-wide siRNA Screen;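 further: robust z of the log signal after scaling to non-targeting control siRNA wells of the plate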
# Details: RAW264.7 macrophages, IL-1a HTRF, actives lie on both sides, screened at 100 nM (by protocol), cells primed 5 h with Pam3CSK4 first
# How it was run: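 Knockdown: 100 nM siRNA, 48h, RAW264.7. Stimulation: Pam3CSK4 5 h, then LipidA via TransIT-TKO 24 h. Output: supernatant IL-1a HTRF, negative-control-normalized, log robust z-score; viability by CellTiter-Glo.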
row,Sequence,z-score
1,GAGUUCGAUGUUCAGGAGCTT against Ndrg1,inactive: -0.354
2,GCCCGAUUUGGCCUAAGUGTT against Paxx,inactive: 0.71
3,GCAGGGCAAUAUCUUCUACTT against Chst3,inactive: 0.466
4,CCUCAGCGGAGAAGAUGUATT against Adora1,inactive: -1.01
5,AGUGAAGAAAUGUUUGACATT against Raet1b,inactive: -1.08
6,GCGUAAACAUUGUAACAACTT against Pkib,inactive: 1.84
7,GCAUAGGAGAGACCAACAUTT against Zcchc10,active: -2.42
8,CAUCCUAGACCUCCAAGCATT against Smr3a,inactive: -1.64
9,GCACCAAUAGAGUUAGAAATT against Oprk1,inactive: 0.817
10,GGCUUUCCAAAGAUUAGUCTT against Arl1,inactive: -0.541
11,CGAAUGCAACAUGUGAUGUTT against Dcaf13,inactive: -1.07
12,GCAAAGCUACUGUUCACCATT against Agtr1b,inactive: -0.451
13,GGAGAAGAACAGAACAUGATT against Igf2,active: 2.36
14,GGUGAUCUGGGUGUUGAUUTT against Slc25a42,inactive: -1.54
15,GGAAAACUCUACCUUAUUGTT against Kif22,inactive: 1.72
16,GCCUUUAACUCCUACGUAGTT against Plxna4,inactive: -1.58
17,GCUACAUCAUGAAAGACCCTT against Cdpf1,inactive: -0.138
18,GGAAGAGAUGGCCAUAUACTT against Abcb1b,inactive: 0.796
19,GCAAUUCUGACAACAGCCUTT against Gpr141b,inactive: -0.489
20,GCGAAGAAGAACCAUCGAUTT against Opalin,inactive: -0.456
21,GGGAGUCAGAGUCAUGUAUTT against Mmrn2,inactive: -1.15
22,CCAGCACUCAAUCCUGUAATT against Olfr305,inactive: -0.57
23,GGAAUACAUAGCACACGGUTT against Apba2,inactive: 1.06

row,Sequence,z-score
1,GGCAAAAAAUCUCAUUUGUTT against Rock1,inactive: 0.137
2,GCAUGACCAGCAGUUCCUUTT against Itsn1,inactive: 1.55
3,GGCUCUAAAAACAAAUGACTT against Asb4,inactive: -0.659
4,GAAAAUCUUGACACUCCUGTT against Ifna9,inactive: -0.434
5,CCAAACUUUUGUGGAACAGTT against Galnt9,inactive: 0.0294
6,GGACCUUAUGGCUUUGUAGTT against Ier5,inactive: -1.3
7,CCGCAUCUAUGCAGGGCAATT against Coq7,inactive: 1.46
8,GCCACAACUGUCAACAUAGTT against Exosc8,inactive: -0.905
9,GCACAAGAAAUCGAAUAUGTT against Acr,inactive: -0.00119
10,GGCUCAGUCAGUGACUGUATT against Erf,inactive: 0.965
11,GCUGACAACUGAUGGGAAGTT against Larp7,inactive: 1.05
12,GGUAGGUUAAAGAGACUUUTT against Msx1,inactive: -0.106
13,GCUAUUCGUUUCUUAUAACTT against Slc19a3,inactive: 0.83
14,GCUAGACUUCUUUGUGCGATT against Abhd8,inactive: 0.656
15,GGUACCCAGCGAUCAUGCATT against Olfr1370,inactive: -0.109
16,CCCAAAUAACAGAGAAAUGTT against St8sia6,inactive: 0.818
17,GGUAUGAGCAACCUAAGUGTT against Smoc2,inactive: -1.3
18,GCUGGAAAAAAAGUUGGAUTT against Diaph1,inactive: -1.29
19,GGAAAGUCAAUCAGAAAAUTT against Dars,inactive: 0.668
20,GCUGUCUGAUUCUGAGGUGTT against Slc6a1,active: 2
21,GCAUCCUAAAGGAGACGCATT against Ccdc102a,inactive: 0.848
22,GGCAUGGAUUGGUGAGAUUTT against 9330175E14Rik,inactive: -0.576
23,GGUUUUUUAACAGAGAUCCTT against Hipk1,inactive: -0.684

row,Sequence,z-score
1,GGUAGUGGCUAAUGCUGUGTT against Tepsin,inactive: -0.0468
2,GGAGGAUUCCCUCUAUAUUTT against Slc33a1,inactive: 0.118
3,GGGUUAUGGCUGGAAUCUGTT against Slc12a9,inactive: -1.52
4,GGACUGCACCUUUUGGCAUTT against Tlr11,inactive: -0.329
5,GGUGACUGUCCUGAACUAUTT against Prr5l,inactive: 1.7
6,GGAAGUAUUUCACAUGUGATT against Dctn1,inactive: -0.299
7,GCCCUUUGGCAAUGUGAGATT against Opn1mw,inactive: -0.378
8,CGAACCUCCAGUUAUUAGUTT against Chfr,inactive: 0.8
9,GGAAAAGAAAGGUCCUGAGTT against Klc3,inactive: -0.608
10,CGCAGGACAUUUGGUUUUGTT against Ssxb2,active: 2.88
11,CCGUGGUAUCAAUGAUUGGTT against Hhatl,inactive: 1.08
12,CGACAACGAUAAGUUUGAATT against Fgg,inactive: -1.62
13,GGAAGAAGCAGCAAGAAGATT against Ttc39b,active: -2.16
14,GGUGAAGGUACGAGUAAGATT against Prkra,inactive: -0.809
15,GGAGACAGAAUGCACAUUUTT against Tff3,inactive: -0.888
16,GGCAUGUAAUGAAUUCACATT against Pbx3,active: -2.14
17,GGCCACUCAAUAUCAACGATT against Apaf1,inactive: 0.168
18,GGAACUUAAGAACUUUCUATT against Calb1,active: 2.3
19,GGGCUUCGAUGGAACUCCUTT against Col4a3,inactive: -0.368
20,GCCACUUCCGCAUAAUUGGTT against Setbp1,inactive: -0.935
21,CCCAUCCUGUAUCCACUAATT against Mlf2,inactive: -1.44
22,GGUCCAUGCUCUCAUGAGUTT against Batf2,inactive: -1.34
23,CCACAAUGUUACCCAGAAUTT against Adgrg2,inactive: 0.441
